The source of these data is patent US20260115304A1 (priority 2023, published 2026).

The data set in a line: general procedure: solution-phase peptide synthesis; HATU/DIPEA; HOBt/DIPEA for carbonate coupling to MMAE. The following applies: trifluoroacetate; for conjugation yield: conjugation step.

For the setting “late stage modification step”, “(2,3S,4S,5R,6S)-6-(2-((R)-26-amino-25-(2,5-dioxo-2,5-dihydro-1H-pyrrol-1-yl)-17,21-dioxo-4,7,10,13,22-pentaoxa-16,20-diazahexacosanamido)-4-((5S,8S,11S,12R)-11-((S)-sec-butyl)-12-(2-((S)-2-((1R,2R)-3-(((1S,2R)-1-hydroxy-1-phenylpropan-2-yl)amino)-1-methoxy-2-methyl-3-oxopropyl)pyrrolidin-1-yl)-2-oxoethyl)-5,8-diisopropyl-4,10-dimethyl-3,6,9-trioxo-2,13-dioxa-4,7,10-triazatetradecyl)phenoxy)-3,4,5-trihydroxytetrahydro-2H-pyran-2-carboxylic acid” yielded a step yield of 56.2%.

Turning to “(2S,3S,4S,5R,6S)-6-(2-(3-((((R)-4-amino-3-(2,5-dioxo-2,5-dihydro-1H-pyrrol-1-yl) butoxy)carbonyl)amino)propanamido)-4-((5S,8S,11S,12R)-11-((S)-sec-butyl)-12-(2-((S)-2-((1R,2R)-3-(((1S,2R)-1-hydroxy-1-phenylpropan-2-yl)amino)-1-methoxy-2-methyl-3-oxopropyl)pyrrolidin-1-yl)-2-oxoethyl)-5,8-diisopropyl-4,10-dimethyl-3,6,9-trioxo-2,13-dioxa-4,7,10-triazatetradecyl)phenoxy)-3,4,5-trihydroxytetrahydro-2H-pyran-2-carboxylic acid”, the step yield (late stage modification step) is listed as 75.3%.

For the setting “late stage modification step”, “(42S,52R)-53-amino-42-((3-((5-((5S,8S,11S,12R)-11-((S)-sec-butyl)-12-(2-((S)-2-((1R,2R)-3-(((1S,2R)-1-hydroxy-1-phenylpropan-2-yl)amino)-1-methoxy-2-methyl-3-oxopropyl)pyrrolidin-1-yl)-2-oxoethyl)-5,8-diisopropyl-4,10-dimethyl-3,6,9-trioxo-2,13-dioxa-4,7,10-triazatetradecyl)-2-(((2S,3R,4S,5S,6S)-6-carboxy-3,4,5-trihydroxytetrahydro-2H-pyran-2-yl)oxy)phenyl)amino)-3-oxopropyl)carbamoyl)-52-(2,5-dioxo-2,5-dihydro-1H-pyrrol-1-yl)-4,4-dimethyl-8,36,44,48-tetraoxo-12,15,18,21,24,27,30,33,49-nonaoxa-4,9,37,43,47-pentaazatripentacontan-4-ium-1-sulfonate” returned a step yield of 54.2%.

Where the note is “coupling step”, “tert-butyl(S)-40-((((9H-fluoren-9-yl)methoxy)carbonyl)amino)-1-amino-3,6,9,12,15,18,21,24,27,30,33,36-dodecamethyl-1,4,7,10,13,16,19,22,25,28,31,34,37-tridecaoxo-3,6,9,12,15,18,21,24,27,30,33,36-dodecaazahentetracontan-41-oate” showed a step yield of 71.5% yield.

With “(2S,3S,4S,5R,6S)-6-(2-((2-((((R)-4-amino-3-(2,5-dioxo-2,5-dihydro-1H-pyrrol-1-yl) butoxy)carbonyl)amino)ethyl)carbamoyl)-4-((5S,8S,11S,12R)-11-((S)-sec-butyl)-12-(2-((S)-2-((1R,2R)-3-(((1S,2R)-1-hydroxy-1-phenylpropan-2-yl)amino)-1-methoxy-2-methyl-3-oxopropyl)pyrrolidin-1-yl)-2-oxoethyl)-5,8-diisopropyl-4,10-dimethyl-3,6,9-trioxo-2,13-dioxa-4,7,10-triazatetradecyl)phenoxy)-3,4,5-trihydroxytetrahydro-2H-pyran-2-carboxylic acid”, the step yield (late stage modification step) amounted to 54.2%.

“(2S,3S,4S,5R,6S)-6-(2-((R)-38-amino-37-(2,5-dioxo-2,5-dihydro-1H-pyrrol-1-yl)-29,33-dioxo-4,7,10,13,16,19,22,25,34-nonaoxa-28,32-diazaoctatriacontanamido)-4-((5S,8S,11S,12R)-11-((S)-sec-butyl)-12-(2-((S)-2-((1R,2R)-3-(((1S,2R)-1-hydroxy-1-phenylpropan-2-yl)amino)-1-methoxy-2-methyl-3-oxopropyl)pyrrolidin-1-yl)-2-oxoethyl)-5,8-diisopropyl-4,10-dimethyl-3,6,9-trioxo-2,13-dioxa-4,7,10-triazatetradecyl)phenoxy)-3,4,5-trihydroxytetrahydro-2H-pyran-2-carboxylic acid” yielded a step yield (late stage modification step) of 70.4% yield.

Turning to “(2S,3S,4S,5R,6S)-6-(2-(((S)-42-(3-((((R)-4-amino-3-(2,5-dioxo-2,5-dihydro-1H-pyrrol-1-yl) butoxy)carbonyl)amino)propanamido)-39,43-dioxo-2,5,8,11,14,17,20,23,26,29,32,35-dodecaoxa-38,44-diazahexatetracontan-46-yl)carbamoyl)-4-((5S,8S,11S,12R)-11-((S)-sec-butyl)-12-(2-((S)-2-((1R,2R)-3-(((1S,2R)-1-hydroxy-1-phenylpropan-2-yl)amino)-1-methoxy-2-methyl-3-oxopropyl)pyrrolidin-1-yl)-2-oxoethyl)-5,8-diisopropyl-4,10-dimethyl-3,6,9-trioxo-2,13-dioxa-4,7,10-triazatetradecyl)phenoxy)-3,4,5-trihydroxytetrahydro-2H-pyran-2-carboxylic acid”, for the setting “late stage modification step”, the step yield is on record as 48.7%.

In turn, “(2S,3R,4S,5S,6S)-2-(2-amino-4-((5S,8S,11S,12R)-11-((S)-sec-butyl)-12-(2-((S)-2-((1R,2R)-3-(((1S,2R)-1-hydroxy-1-phenylpropan-2-yl)amino)-1-methoxy-2-methyl-3-oxopropyl)pyrrolidin-1-yl)-2-oxoethyl)-5,8-diisopropyl-4,10-dimethyl-3,6,9-trioxo-2,13-dioxa-4,7,10-triazatetradecyl)phenoxy)-6-(methoxycarbonyl)tetrahydro-2H-pyran-3,4,5-triyl triacetate” displayed a conjugation yield of 63.9% yield.

For the substance “(2S,3S,4S,5R,6S)-6-(2-((R,E)-13-amino-12-(2,5-dioxo-2,5-dihydro-1H-pyrrol-1-yl)-8-oxo-4,9-dioxa-3,7-diazatridec-2-en-2-yl)-4-((5S,8S,11S,12R)-11-((S)-sec-butyl)-12-(2-((S)-2-((1R,2R)-3-(((1S,2R)-1-hydroxy-1-phenylpropan-2-yl)amino)-1-methoxy-2-methyl-3-oxopropyl)pyrrolidin-1-yl)-2-oxoethyl)-5,8-diisopropyl-4,10-dimethyl-3,6,9-trioxo-2,13-dioxa-4,7,10-triazatetradecyl)phenoxy)-3,4,5-trihydroxytetrahydro-2H-pyran-2-carboxylic acid”, the step yield (late stage modification step) is recorded as 42.2%.

For the setting “late stage modification step”, “(2S,3S,4S,5R,6S)-6-(2-((R)-32-amino-31-(2,5-dioxo-2,5-dihydro-1H-pyrrol-1-yl)-23,27-dioxo-4,7,10,13,16,19,28-heptaoxa-22,26-diazadotriacontanamido)-4-((5S,8S,11S,12R)-11-((S)-sec-butyl)-12-(2-((S)-2-((1R,2R)-3-(((1S,2R)-1-hydroxy-1-phenylpropan-2-yl)amino)-1-methoxy-2-methyl-3-oxopropyl)pyrrolidin-1-yl)-2-oxoethyl)-5,8-diisopropyl-4,10-dimethyl-3,6,9-trioxo-2,13-dioxa-4,7,10-triazatetradecyl)phenoxy)-3,4,5-trihydroxytetrahydro-2H-pyran-2-carboxylic acid” gave a step yield of 81.2%.

On to “(2S,3S,4S,5R,6S)-6-(2-((6S,31S,32S,33R,34S,38S,39R,40R,41R)-6-(3-((((R)-4-amino-3-(2,5-dioxo-2,5-dihydro-1H-pyrrol-1-yl) butoxy)carbonyl)amino)propanamido)-31,32,33,34,38,39,40,41,42-nonahydroxy-36-methyl-5,9,25,30-tetraoxo-13, 16, 19,22-tetraoxa-4,10,26,29,36-pentaazadotetracontanamido)-4-((5S,8S,11S,12R)-11-((S)-sec-butyl)-12-(2-((S)-2-((1R,2R)-3-(((1S,2R)-1-hydroxy-1-phenylpropan-2-yl)amino)-1-methoxy-2-methyl-3-oxopropyl)pyrrolidin-1-yl)-2-oxoethyl)-5,8-diisopropyl-4,10-dimethyl-3,6,9-trioxo-2,13-dioxa-4,7,10-triazatetradecyl)phenoxy)-3,4,5-trihydroxytetrahydro-2H-pyran-2-carboxylic acid”, for which the conjugation yield was determined as 32.9%. The substance also gave a step yield (late stage modification step) of 68.5%.

In turn, “(2S,3S,4S,5R,6S)-6-(4-((5S,8S,11S,12R)-11-((S)-sec-butyl)-12-(2-((S)-2-((1R,2R)-3-(((1S,2R)-1-hydroxy-1-phenylpropan-2-yl)amino)-1-methoxy-2-methyl-3-oxopropyl)pyrrolidin-1-yl)-2-oxoethyl)-5,8-diisopropyl-4,10-dimethyl-3,6,9-trioxo-2,13-dioxa-4,7,10-triazatetradecyl)-2-((S)-42-(4-(5-(methylsulfonyl)-1,2,4-thiadiazol-3-yl)benzamido)-39,43-dioxo-2,5,8,11,14,17,20,23,26,29,32,35-dodecaoxa-38,44-diazaheptatetracontan-47-amido)phenoxy)-3,4,5-trihydroxytetrahydro-2H-pyran-2-carboxylic acid” showed a conjugation yield of 38.8% yield.

Take “(2S,3S,4S,5R,6S)-6-(2-((R,E)-17-amino-16-(2,5-dioxopyrrolidin-1-yl)-8,12-dioxo-4,13-dioxa-3,7,11-triazaheptadec-2-en-2-yl)-4-((5S,8S,11S,12R)-11-((S)-sec-butyl)-12-(2-((S)-2-((1R,2R)-3-(((1S,2R)-1-hydroxy-1-phenylpropan-2-yl)amino)-1-methoxy-2-methyl-3-oxopropyl)pyrrolidin-1-yl)-2-oxoethyl)-5,8-diisopropyl-4,10-dimethyl-3,6,9-trioxo-2,13-dioxa-4,7,10-triazatetradecyl)phenoxy)-3,4,5-trihydroxytetrahydro-2H-pyran-2-carboxylic acid”: the step yield (late stage modification step) worked out at 53.9%.

Substance “(2S,3S,4S,5R,6S)-6-(4-((5S,8S,11S,12R)-11-((S)-sec-butyl)-12-(2-((S)-2-((1R,2R)-3-(((1S,2R)-1-hydroxy-1-phenylpropan-2-yl)amino)-1-methoxy-2-methyl-3-oxopropyl)pyrrolidin-1-yl)-2-oxoethyl)-5,8-diisopropyl-4,10-dimethyl-3,6,9-trioxo-2,13-dioxa-4,7,10-triazatetradecyl)-2-((E)-1-((2-(4-(5-(methylsulfonyl)-1,2,4-thiadiazol-3-yl)benzamido) ethoxy)imino)ethyl)phenoxy)-3,4,5-trihydroxytetrahydro-2H-pyran-2-carboxylic acid” gave a conjugation yield of 40.5%.
